The values that follow come from the supplement of paper PMC5949888.

Most values lie at the floor of the assay. Slopes are relative: functional sequences can read slightly below zero. Bounds are passed on as bounds.

This series has as its system Saccharomyces cerevisiae PS128 hsf1 delta, HSF1(1-493) fusion. The experiment in a line: growth estimate (transactivation domain function in HSF1 fusion, heat-shock survival) (a.u. (slope of normalised read count over time)); higher = stronger growth at 37°C, i.e. more transactivation activity. Particulars: library: random library.
Take RPVRRYVPDREGWFVMQETD: the growth estimate was < -0.25.

For the substance STKATMPGRTQRIGVRLDSH, the growth estimate is < -0.25. In the case of NLGGRKLLARLRIRRDVLRN it was < -0.25. Then PGASSFSDAGRC, with < -0.25; and LGITDSEFRCIPCA, with < -0.25; and TVNSRAQFWSDMID, with < -0.25. Turning to IEQIGTDPTLLRGQPI, the growth estimate is < -0.25. Take MPRITFLITVGTCVGDSVSH: the growth estimate was < -0.25.

On to QPVPATPADA, for which the growth estimate is < -0.25. As to GQLFRACWVSFPNHRMPTSY, the growth estimate is < -0.25. Then KTCDLGGSYTRSRDGR, with < -0.25; and KRQSSTLTEVNVIHG, with < -0.25; and LGTSRFERIRRSGTRRPPWT, with < -0.25.

Take VGDLVGL: the growth estimate was < -0.25. In the case of GGRASLWFRSQGSDTIIRLS, the growth estimate is < -0.25. In the case of VIVLAYDSYS, the growth estimate was < -0.25. Then QYIGSSG, with < -0.25. In the case of SQV it was < -0.25; in that of KVDCLLLLIFTCLCFISRVI, < -0.25; in that of AFSSSQVSQRSILRKQLAQA, < -0.25. In the case of CRGGGATQFIWLCYR, the growth estimate is < -0.25.

With SVVSDFNSHHSLINATAV, the growth estimate is < -0.25. In the case of ENRHVDGGVDSTSHLLTRMA it was < -0.25. Then VFGSSFGDSSNHITHTKSFK, with < -0.25; and SRAWAKSLCVSVWPHNKLRS, with < -0.25; and LPGRLFHWLSGPT, with < -0.25. As to RSLRRDVLVILANGSRRESS, the growth estimate was < -0.25. Consider SCANRALDK, for which the growth estimate was < -0.25. In the case of MSTELVGDWVEGDFA it was < -0.25. In the case of ELLIDIAIPKSLHVGPCIPR, the growth estimate was < -0.25. Turning to SGHYAGEL, the growth estimate is < -0.25. Then FDCTVLST, with < -0.25; and EFSMES, with < -0.25; and SFVGLSPIKEDTCEG, with < -0.25. For the substance DTRQLGASCDTAFGSISVKL, the growth estimate is < -0.25. In the case of ALAGDARWNARLLTAGHKKA it was < -0.25. Consider AGLSDHTPKKSVTCVHTVNR, for which the growth estimate is < -0.25. For YKVVKLFIPEPRQSVFFQNA, the growth estimate was < -0.25.

On to GHGRVWHRFRISVFHSHLPT, for which the growth estimate is < -0.25. Then PWGSHMFSNIGLSRAIGA, with -0.243; and TPFALASCHGRSVVSG, with < -0.25. Regarding TGNRQCNSLVECHARTKQGW, the growth estimate was < -0.25. As for TNSRGCRAINSLMFRWNQVI, the growth estimate was < -0.25. In the case of CVSSANARPPRYNNAP it was < -0.25; in that of TMKAVEGVVTLTDFGVLEVK, < -0.25.

In the case of GRGRDS, the growth estimate is < -0.25. As for GRRLEAITIEGDLVNDFYVL, the growth estimate is < -0.25. As to KSASLGRCVHESVRLLSLDG, the growth estimate is < -0.25.

With NRCMRSSECSTK, the growth estimate is < -0.25.

With TKKAESAVDREGSCFMGKSG, the growth estimate was -0.243.

For GAPLL, the growth estimate was < -0.25. Then LQPGSVDGWEERFMNSAVAI, with < -0.25; and FTDTSPFRITSAHL, with < -0.25; and WWY, with < -0.25. In the case of KGIAI it was < -0.25; in that of VRTISRLLVGKPR, < -0.25; in that of LGDEGTEPSG, < -0.25. ARISPQKLN: the growth estimate was < -0.25.

With KRSDL, the growth estimate is < -0.25. As for YGLANV, the growth estimate was < -0.25. As to GQLTTLVLGFPGWGIQRRRR, the growth estimate was -0.187.

In the case of ILLLH, the growth estimate is < -0.25. Then VDRRKRCPRFARYSLGWLAI, with < -0.25; and NYSVTVVLLIPAIAAAQCRN, with < -0.25. Regarding PNLLTPLCANRGG, the growth estimate was < -0.25. With PENLLDQVRLLSCSLSEDLE, the growth estimate was < -0.25. In the case of PMDVAISDNKA it was < -0.25; in that of SHAASPVEREACLIGPGVL, < -0.25; in that of YLQSGSSNVIRPRKSLMLRS, -0.248. Turning to LLRIDI, the growth estimate was < -0.25. For the substance RGTPKGARSLVCVVTGHSA, the growth estimate was < -0.25. In the case of RSTCRI, the growth estimate was < -0.25. Then VAPIYVMSANSVIE, with < -0.25. In the case of GGSAISGHCKRPSNGGNTSR it was < -0.25; in that of TPRRSNHAEAETPLRKLTRR, < -0.25. In the case of SGSDCDAGARAARRV it was < -0.25; in that of LLSRKGD, < -0.25; in that of LSTGMVGKGVMKSRPSNMMI, < -0.25. On to KFIADHHV, for which the growth estimate was < -0.25.
